Test results taken from patent US20210340205A1.
No constants are given. Whether binding was seen depends on the method and setting. Some binding calls cover weakened binding; strength is not graded here.

Sequences of proteins named here, by UniProt entry; tags and fusion partners are left off. A change or cut given only in a name is not applied to a line headed by its entry.
UniProt Q99988: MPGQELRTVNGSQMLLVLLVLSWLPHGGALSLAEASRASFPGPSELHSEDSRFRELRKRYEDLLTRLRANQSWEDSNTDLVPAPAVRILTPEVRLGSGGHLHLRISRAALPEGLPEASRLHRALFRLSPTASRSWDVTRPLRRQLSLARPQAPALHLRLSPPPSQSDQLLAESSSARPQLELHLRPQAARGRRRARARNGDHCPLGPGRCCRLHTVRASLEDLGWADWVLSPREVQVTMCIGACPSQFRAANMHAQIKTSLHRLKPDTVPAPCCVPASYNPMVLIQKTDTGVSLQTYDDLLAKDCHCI

Legend:
[1] = target: Human cRET(ECD)-Fc (human); test: MSD plate assay, cRET(ECD)-Fc coated, streptavidin sulfo-tag detection
[2] = target: Human cRET(ECD)-Fc (human); test: MSD plate assay of FIG. 5, cRET(ECD)-Fc coated

binding [1]: binds
binding [2]: binds
Substance: His-GDF15(biotin)/GFRAL(ECD)-Fc complex (from UniProt Q99988 197-308)
